Here are results for two molecules from paper PMC4894982.

Protein sequences, listed by entry. Tags and fused reporters are not part of them. Residues count along the entry.
UniProt O75581, residues 20-1370: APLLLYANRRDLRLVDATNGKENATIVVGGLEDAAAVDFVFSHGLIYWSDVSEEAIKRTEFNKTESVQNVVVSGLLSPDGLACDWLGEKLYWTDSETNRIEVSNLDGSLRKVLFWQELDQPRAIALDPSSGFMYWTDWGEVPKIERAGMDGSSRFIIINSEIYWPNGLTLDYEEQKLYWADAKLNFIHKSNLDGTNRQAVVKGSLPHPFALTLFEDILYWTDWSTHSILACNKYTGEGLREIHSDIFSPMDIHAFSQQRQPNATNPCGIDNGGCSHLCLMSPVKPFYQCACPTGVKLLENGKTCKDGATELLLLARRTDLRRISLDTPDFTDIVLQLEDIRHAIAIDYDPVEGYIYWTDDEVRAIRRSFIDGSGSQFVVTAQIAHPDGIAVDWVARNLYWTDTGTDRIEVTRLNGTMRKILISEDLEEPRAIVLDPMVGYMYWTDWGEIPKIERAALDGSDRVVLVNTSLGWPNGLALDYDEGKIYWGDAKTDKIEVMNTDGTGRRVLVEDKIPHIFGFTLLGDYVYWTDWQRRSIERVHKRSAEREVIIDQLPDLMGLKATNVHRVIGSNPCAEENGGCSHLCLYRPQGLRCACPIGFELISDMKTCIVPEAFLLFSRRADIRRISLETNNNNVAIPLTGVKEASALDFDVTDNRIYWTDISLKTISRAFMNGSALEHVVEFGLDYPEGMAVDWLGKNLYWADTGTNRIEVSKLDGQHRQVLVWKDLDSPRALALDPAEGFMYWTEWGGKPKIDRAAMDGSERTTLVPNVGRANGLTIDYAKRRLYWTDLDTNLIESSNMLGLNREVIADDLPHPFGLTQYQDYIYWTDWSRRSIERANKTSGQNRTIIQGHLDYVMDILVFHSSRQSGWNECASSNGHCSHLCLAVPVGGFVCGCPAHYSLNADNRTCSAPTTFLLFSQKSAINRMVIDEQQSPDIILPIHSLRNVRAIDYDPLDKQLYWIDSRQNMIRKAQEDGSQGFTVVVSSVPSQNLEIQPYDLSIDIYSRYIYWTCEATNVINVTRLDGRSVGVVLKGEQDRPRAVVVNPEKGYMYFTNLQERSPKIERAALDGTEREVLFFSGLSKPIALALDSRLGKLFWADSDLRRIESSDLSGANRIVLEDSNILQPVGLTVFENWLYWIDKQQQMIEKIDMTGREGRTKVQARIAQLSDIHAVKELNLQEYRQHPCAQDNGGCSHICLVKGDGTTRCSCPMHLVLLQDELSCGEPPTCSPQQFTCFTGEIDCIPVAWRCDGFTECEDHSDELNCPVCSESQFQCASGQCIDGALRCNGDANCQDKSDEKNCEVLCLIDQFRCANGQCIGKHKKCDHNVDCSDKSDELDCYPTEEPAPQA
UniProt Q9BQB4, residues 24-213: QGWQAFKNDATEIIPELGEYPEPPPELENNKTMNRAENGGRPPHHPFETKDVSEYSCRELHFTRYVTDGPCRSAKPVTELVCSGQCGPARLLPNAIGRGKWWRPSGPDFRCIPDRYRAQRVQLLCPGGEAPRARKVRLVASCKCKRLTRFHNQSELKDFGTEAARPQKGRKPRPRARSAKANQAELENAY

No constants are given. Whether binding was seen depends on the method and setting. Some entries that bind do so weakly or less than the wild type.

The target in the assay is recombinant huLRP-6/Fc (human) (UniProt O75581). Nature of the assay: AlphaScreen or HTRF; competition format: biotin-labelled sclerostin (2 nM) or DKK1 (0.5 nM) on streptavidin donor beads, huLRP-6/Fc (3 nM for sclerostin, 0.3 nM for DKK1) on protein A acceptor beads, serial dilutions of Hetero-DS; 40 mM sodium HEPES pH 7.5, 100 mM NaCl, 1 mM CaCl2, 0.1% BSA, 0.05% Tween20; overnight at 20 °C; both purified. (Bead proximity is the source of the signal in Alpha formats.)

For “biotin-labelled human recombinant sclerostin (from UniProt Q9BQB4 24-213) (ligand)”, the binding entry is “binds”.

B1: biotin-labelled human recombinant DKK1 (ligand, UniProt O94907 32-266)
chain: TLNSVLNSNAIKNLPPPLGGAAGHPGSAVSAAPGILYPGGNKYQTIDNYQPYPCAEDEECGTDEYCASPTRGGDAGVQICLACRKRRKRCMRHAMCCPGNYCKNGICVSSDQNHFRGEIEETITESFGNDHSTLDGYSRRTTLSSKMYHTKGQEGSVCLRSSDCASGLCCARHFWSKICKPVLKEGQVCTKHRRKGSHGLEIFQRCYCGEGLSCRIQKDHHQASNSSRLHTCQRH
modifications: biotin-labelled (site not stated)
With B1, the binding result is on record as “binds”.
